# Data: PMC7819943, “Rice protein-binding microarrays: a tool to detect cis-acting elements near promoter regions in rice”
# By UniProt entry, the sequences of proteins in these tests, tags left out.
# UniProt Q0JBA9, entry or part of it: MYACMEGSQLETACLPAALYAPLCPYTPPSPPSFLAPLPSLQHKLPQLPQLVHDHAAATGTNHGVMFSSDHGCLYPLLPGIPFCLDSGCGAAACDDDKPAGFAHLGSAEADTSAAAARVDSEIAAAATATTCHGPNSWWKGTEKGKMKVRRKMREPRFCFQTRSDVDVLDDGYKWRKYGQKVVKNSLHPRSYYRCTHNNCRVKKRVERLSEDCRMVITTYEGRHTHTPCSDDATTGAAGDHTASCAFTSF
# The other results are listed elsewhere or left out.
# Molecular target: OsWRKY34 (Oryza sativa, UniProt Q0JBA9 1-250)
# Experiment: protein-binding microarray (RPBM); PBS, 2% BSA, 51.3 ng/ul salmon testes DNA, 50 uM zinc acetate, 200 nM TF, 25 C, 1 h; high values mean tight binding
# Conditions: protein: recombinant; tags: N-terminal polyhistidine and DsRed monomer fusion (pET32a); label: CyDye5-dUTP incorporated in the synthesized complementary strand; 3' TTTTT single-stranded linker to array surface; dsDNA, one strand shown
# Procedure, shortened: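 Transcription factors were made in E. coli BL21-CodonPlus as N-terminal fusions to a polyhistidine tag and DsRed, then purified on Ni–NTA. After primer extension with Cy5-dUTP and blocking with 2% BSA, a custom Agilent array was exposed for 1 h at 25 °C to 200 nM protein in PBS, 2% BSA, salmon testes DNA and 50 µM zinc acetate. Washed arrays were scanned on an Axon 4000B, and the binding signal is per-feature fluorescence intensity in arbitrary units.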
row,Sequence,binding signal
1,GTCATATGATAACTACTATATTTACTTGATAATTCGTCCTCGGAGTCACCTAGTGCAG,8570 fluorescence intensity (a.u.)
2,GTACACCTTACGACTGTACAGCATCCCAATCAAACATTTCCGGAGTCACCTAGTGCAG,11000 fluorescence intensity (a.u.)
3,TAAACTATATGTCTGACCGCTTGCAGAACTACTGATTGACCGGAGTCACCTAGTGCAG,9300 fluorescence intensity (a.u.)
4,GTTTCACATTTGTGTGTTTTTGGTTGCAAATGCTTTGTCTCGGAGTCACCTAGTGCAG,9520 fluorescence intensity (a.u.)
5,TCCTTGCACAATCATTATTCCCTTTCTTGCTTACTTTCTTCGGAGTCACCTAGTGCAG,9810 fluorescence intensity (a.u.)
6,CCGTTAGTGAACATGTAAATATTTTTCACTCTACTTAATACGGAGTCACCTAGTGCAG,8960 fluorescence intensity (a.u.)
7,TTGTAGGGGCGTTCTTGTCAATCTTTTGTCCCCAACTTTCCGGAGTCACCTAGTGCAG,8900 fluorescence intensity (a.u.)
8,CATGGTGACATGTTGTGGGGCTGTGTCTTGTGGGTACAGTCGGAGTCACCTAGTGCAG,8650 fluorescence intensity (a.u.)
9,TCCCGGCCCCACCATACCGTTGCCGGCCTCCTCGTCCTCTCGGAGTCACCTAGTGCAG,9780 fluorescence intensity (a.u.)
10,GTTGCTATGTTTTTTTATAAATTTGGTCAAACTTTTTAGACGGAGTCACCTAGTGCAG,8060 fluorescence intensity (a.u.)
11,TATTATTGAAGGTATTTAGGGGTAGTGGGTCTTTAGTCACCGGAGTCACCTAGTGCAG,8900 fluorescence intensity (a.u.)
12,CTCCGCCCACACTCCGTCGCGCATCGCCCTGCCGCCGACGCGGAGTCACCTAGTGCAG,9680 fluorescence intensity (a.u.)
13,GAGATTGGTTCGAGTTTGCAATATCACGCTGTTACCTCACCGGAGTCACCTAGTGCAG,8630 fluorescence intensity (a.u.)
14,ATGTCATCCAATCATACACTGTACGCGCACACACACATGACGGAGTCACCTAGTGCAG,8920 fluorescence intensity (a.u.)
15,ACTTCTTCTCATTCTTATGGATCAATATTTTCGCTTTATGCGGAGTCACCTAGTGCAG,8690 fluorescence intensity (a.u.)
16,CATGTTAGGGCGGGGAGATCACACGTGATGCATATAGACGCGGAGTCACCTAGTGCAG,13000 fluorescence intensity (a.u.)
17,GCGTTAACTACTTTAATTGTGACATTTATCCCTATTTATACGGAGTCACCTAGTGCAG,9530 fluorescence intensity (a.u.)
18,AAGTTGTACCGTTATCTCGCATATTATCTACGTGGACACTCGGAGTCACCTAGTGCAG,8180 fluorescence intensity (a.u.)
19,CCGGTTTTCTCCGCAGTTTCTTGATCCATCCGCCTTTCCTCGGAGTCACCTAGTGCAG,8760 fluorescence intensity (a.u.)
20,TATAGCCAAGCTGCTATAAGTCATTTTGACTTTTTTTAGTCGGAGTCACCTAGTGCAG,9220 fluorescence intensity (a.u.)
21,CGGCGTCGTCACTGTTCCGGCTCGTCGCCGCGCGCGCGCGCGGAGTCACCTAGTGCAG,10100 fluorescence intensity (a.u.)

row,Sequence,binding signal
1,ATCGGGTCGGTTTGCCTTTTTTGAATTTCTGAGTATTTTGCGGAGTCACCTAGTGCAG,9060 fluorescence intensity (a.u.)
2,CTTCGCCTCCGGCGCCGCCGGTGGCTGCTCCGCCGCGTCGCGGAGTCACCTAGTGCAG,8790 fluorescence intensity (a.u.)
3,TCTCACTGATTAACTAACCTTTATTCTCAAGTTTTTCTCTCGGAGTCACCTAGTGCAG,8810 fluorescence intensity (a.u.)
4,TCCCACATTGGTTCCATGCATGCTATTATCATTTCCATTACGGAGTCACCTAGTGCAG,9450 fluorescence intensity (a.u.)
5,TAATTTTTAGTTTCTTGCCCTTAATTTGTATATAATATTTCGGAGTCACCTAGTGCAG,8650 fluorescence intensity (a.u.)
6,GTAGCTTGTCCTCTTCGCCGAGGCCGAGGTGACGCACATGCGGAGTCACCTAGTGCAG,9000 fluorescence intensity (a.u.)
7,GCTTAGCGTTGACTTCGATGGGTGCATCGCGTTCGATCGCCGGAGTCACCTAGTGCAG,11200 fluorescence intensity (a.u.)
8,TCATCCCACCGACGTCAGCAAGCCATCGCCATCAAGCCCACGGAGTCACCTAGTGCAG,9760 fluorescence intensity (a.u.)
9,CCCGTGTCTTCCCAACCACGTTGACCACGACTTTTTCGTTCGGAGTCACCTAGTGCAG,9480 fluorescence intensity (a.u.)
10,CTCTCCTGTTGCTGATGCTCTTGTTTGCCGTAGGTGACACCGGAGTCACCTAGTGCAG,11900 fluorescence intensity (a.u.)
11,TACTTGCTTAAAGTTTACTTTCTGTTGCTTTTCCAGTTTACGGAGTCACCTAGTGCAG,8850 fluorescence intensity (a.u.)
12,GCGGGCGGGCGGGCTCACCGGTCGTTGACGAGGAGTTTGGCGGAGTCACCTAGTGCAG,14900 fluorescence intensity (a.u.)
13,GCATGCAAGTTCATGTGCCGCCCACTCATCATCGTCTTTTCGGAGTCACCTAGTGCAG,8280 fluorescence intensity (a.u.)
14,TTTAAGCTTTTTTCTGTTCACTTTTGGATATTTTGGTTGTCGGAGTCACCTAGTGCAG,11900 fluorescence intensity (a.u.)
15,CTCTTCGTCCCGGGTCATGTGTGTGTGAATTGCTCGTGTTCGGAGTCACCTAGTGCAG,10700 fluorescence intensity (a.u.)
16,GCCAAAAAGTTAGGCTTTCTTTCCATTCATTCATTCATTCCGGAGTCACCTAGTGCAG,8170 fluorescence intensity (a.u.)
17,TATTCCTCCAGGCTTCCAGCGTGACCTCGAGTCATCAGTTCGGAGTCACCTAGTGCAG,8080 fluorescence intensity (a.u.)
18,TCTCTAATCCATTGCCTCGTTTTTCTCTATAGACTATCTACGGAGTCACCTAGTGCAG,8130 fluorescence intensity (a.u.)
19,CTTCTTCTTCTACCTCGCGTCGACTCCTCCTCCTCCCGCTCGGAGTCACCTAGTGCAG,8460 fluorescence intensity (a.u.)
20,CTTTTCTTTTTCATCATACGGCCTATAGAGCACAGTGCCACGGAGTCACCTAGTGCAG,8990 fluorescence intensity (a.u.)
21,ATAGCACGTCATTTTTTTGTTTTTTTTTTACTGCTGCCTCCGGAGTCACCTAGTGCAG,8880 fluorescence intensity (a.u.)
